Measured values as given in paper PMC12359043, “Chemical crosslinking extends and complements UV crosslinking in analysis of RNA/DNA nucleic acid–protein interaction sites by mass spectrometry”.
Construct, isoform or probe ends are uncertain for at least one entry. For some assays here: At least one verdict was read from the data and is not stated in words by the source. For some assays here: Where a protein sequence is shown, tags need not be part of it.

Tests used:
Hsh49 + Cus1 = assay: UV crosslinking MS; conditions: 254 nm, 10 min, protein:RNA 4:1; NELF-TAR complex: 20 mM HEPES/NaOH pH 7.4, 150 mM NaCl, 10% glycerol, 1 mM DTT, mixed 30 min at 4 C; anisotropy conditions only by reference [29]; recombinant protein
spDnmt2 = target: T1, spDnmt2 (UniProt P40999); assay: UV crosslinking MS; conditions: 254 nm, 10 min; unmodified (in vitro transcript); NELF-TAR complex: 20 mM HEPES/NaOH pH 7.4, 150 mM NaCl, 10% glycerol, 1 mM DTT, mixed 30 min at 4 C; anisotropy conditions only by reference [29]; recombinant protein; protein details: GST removed by PreScission (pGEX 6P-3)
T1 sequence (looked up, limits assumed): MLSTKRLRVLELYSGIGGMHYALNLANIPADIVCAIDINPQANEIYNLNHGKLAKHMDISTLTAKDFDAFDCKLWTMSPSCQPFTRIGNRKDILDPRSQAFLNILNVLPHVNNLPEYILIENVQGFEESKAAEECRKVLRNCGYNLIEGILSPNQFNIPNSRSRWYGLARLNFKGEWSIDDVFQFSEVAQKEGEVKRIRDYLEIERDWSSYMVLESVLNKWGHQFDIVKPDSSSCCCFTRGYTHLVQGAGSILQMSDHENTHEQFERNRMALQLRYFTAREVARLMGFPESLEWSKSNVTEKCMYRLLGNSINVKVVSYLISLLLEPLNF

GGACGAAUCUCUUUGCCUUUUGGCUUAGAUCAAGUGUAGUAUCUGUUCUUCUAG [U2 snRNA nt 1-47 (U2-47Nt)]
binding result (Hsh49 + Cus1): binds

GGGUCUCCUUUAGUAUAGGGGUAGUACACAAGCCUGUCACGCUUGCAGCCCGGGUUCGAAUCCCGGAGGGAGAG [sptRNA-Asp]
binding result (spDnmt2): binds
